According to PMC8407544:
Results are given in words; binding and its absence hold for the method and conditions named. In cells and extracts the contact can be indirect. A result given as binding can be weak or reduced; the word gives no strength. Sequences can lack the tags named with a protein.

Molecular target: T1, GFP:Orco (odour-receptor coreceptor, GFP-tagged) (Drosophila melanogaster) (UniProt Q9VNB5)
T1 sequence: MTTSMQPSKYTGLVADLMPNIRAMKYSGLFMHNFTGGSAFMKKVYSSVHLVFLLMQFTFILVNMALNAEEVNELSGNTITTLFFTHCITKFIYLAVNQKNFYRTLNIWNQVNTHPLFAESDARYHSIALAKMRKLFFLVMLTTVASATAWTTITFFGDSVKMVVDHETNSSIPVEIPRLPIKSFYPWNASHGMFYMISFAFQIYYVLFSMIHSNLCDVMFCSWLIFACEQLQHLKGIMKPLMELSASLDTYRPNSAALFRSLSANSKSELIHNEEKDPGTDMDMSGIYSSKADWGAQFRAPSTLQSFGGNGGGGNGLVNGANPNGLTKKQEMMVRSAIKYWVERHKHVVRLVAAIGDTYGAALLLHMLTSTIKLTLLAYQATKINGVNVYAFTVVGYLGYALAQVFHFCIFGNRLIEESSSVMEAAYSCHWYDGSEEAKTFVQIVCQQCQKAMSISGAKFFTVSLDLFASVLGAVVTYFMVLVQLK
Test: co-IP; agarose beads conjugated with GFP-nanobody (chromotek); head extracts of chaGal4>UAS-GFP:Orco adults; western blot

- binding: binds
Substance: DmKAP (kinesin associated protein, accessory subunit of heterotrimeric kinesin-2)
